Publication PMC9646721, “Alkaloid binding to opium poppy major latex proteins triggers structural modification and functional aggregation” (Nature Communications, 2022)

Test: Sucrose density-gradient fractionation of Przemko latex with exogenous alkaloid
Design: species or system Papaver somniferum
Conditions: exogenous alkaloid (420-460 mM) added to 80 µL Przemko latex, 14-66% sucrose gradient

CN1CC[C@]23c4c5ccc(O)c4O[C@H]2[C@@H](O)C=C[C@H]3[C@H]1C5 [Morphine, morphine]
formation of dense aggregate bands in gradient: higher-density material was not observed
